In article doi:10.1101/776690:
These are yes or no findings as the source states them, for the method shown. Some entries that bind do so weakly or less than the wild type. For part of these data: Tags and fused reporters may be left off the sequences shown.

T1: C39S adiponectin (murine), Q60994
T1 chain: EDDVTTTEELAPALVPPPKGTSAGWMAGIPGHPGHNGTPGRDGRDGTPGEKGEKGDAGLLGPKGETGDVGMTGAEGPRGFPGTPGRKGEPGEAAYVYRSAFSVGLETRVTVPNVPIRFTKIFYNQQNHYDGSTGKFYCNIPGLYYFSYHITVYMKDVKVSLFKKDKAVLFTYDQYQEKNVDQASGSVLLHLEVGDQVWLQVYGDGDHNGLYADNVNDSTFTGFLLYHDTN


Tests used:
[1] = molecular target: recombinant murine adiponectin with a V5-6xHis C-terminal tag (murine) (UniProt Q60994); assay: non-reducing denaturing SDS-PAGE with Western blot
[2] = molecular target: recombinant murine adiponectin with a V5-6xHis C-terminal tag (murine) (UniProt Q60994); assay: SEC
[3] = molecular target: T1, C39S adiponectin (murine), Q60994; assay: non-reducing denaturing SDS-PAGE with Western blot; conditions: remark: other sources report otherwise

binding [1] | binding [2] | binding [3] | Binder
binds | binds |  | recombinant murine adiponectin with a V5-6xHis C-terminal tag (protein, UniProt Q60994 18-247) EDDVTTTEELAPALVPPPKGTCAGWMAGIPGHPGHNGTPGRDGRDGTPGEKGEKGDAGLLGPKGETGDVGMTGAEGPRGFPGTPGRKGEPGEAAYVYRSAFSVGLETRVTVPNVPIRFTKIFYNQQNHYDGSTGKFYCNIPGLYYFSYHITVYMKDVKVSLFKKDKAVLFTYDQYQEKNVDQASGSVLLHLEVGDQVWLQVYGDGDHNGLYADNVNDSTFTGFLLYHDTN
 |  | no binding | C39S adiponectin, Q60994 18-247 (protein) EDDVTTTEELAPALVPPPKGTSAGWMAGIPGHPGHNGTPGRDGRDGTPGEKGEKGDAGLLGPKGETGDVGMTGAEGPRGFPGTPGRKGEPGEAAYVYRSAFSVGLETRVTVPNVPIRFTKIFYNQQNHYDGSTGKFYCNIPGLYYFSYHITVYMKDVKVSLFKKDKAVLFTYDQYQEKNVDQASGSVLLHLEVGDQVWLQVYGDGDHNGLYADNVNDSTFTGFLLYHDTN
